From the supplement of paper PMC12819154, “High-throughput peptide-centric local stability assay extends protein–ligand identification to membrane proteins, tissues and bacteria” (Nature Structural & Molecular Biology, 2025)
The list shows a part of the results. Most entries show no effect beyond the scatter of the controls.

By UniProt entry, the sequences of proteins in these tests, tags left out. Where a name states a change or a piece, a line headed by the entry shows the natural chain unless it says otherwise.
UniProt Q14592: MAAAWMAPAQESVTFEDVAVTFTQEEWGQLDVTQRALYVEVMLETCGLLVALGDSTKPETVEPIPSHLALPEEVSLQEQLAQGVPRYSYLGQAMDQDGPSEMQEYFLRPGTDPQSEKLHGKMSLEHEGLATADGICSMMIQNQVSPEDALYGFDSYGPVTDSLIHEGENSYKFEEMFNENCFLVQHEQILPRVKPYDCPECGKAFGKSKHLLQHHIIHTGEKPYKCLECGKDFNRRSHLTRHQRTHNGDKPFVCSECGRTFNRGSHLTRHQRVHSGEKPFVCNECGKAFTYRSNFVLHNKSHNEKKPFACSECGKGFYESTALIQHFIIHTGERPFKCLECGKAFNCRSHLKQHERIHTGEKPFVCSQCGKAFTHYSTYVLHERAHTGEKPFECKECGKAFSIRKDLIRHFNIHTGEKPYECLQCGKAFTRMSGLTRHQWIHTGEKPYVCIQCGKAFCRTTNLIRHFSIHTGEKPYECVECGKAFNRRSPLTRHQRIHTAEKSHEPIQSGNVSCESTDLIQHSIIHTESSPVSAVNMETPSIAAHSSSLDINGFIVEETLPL
UniProt Q14596: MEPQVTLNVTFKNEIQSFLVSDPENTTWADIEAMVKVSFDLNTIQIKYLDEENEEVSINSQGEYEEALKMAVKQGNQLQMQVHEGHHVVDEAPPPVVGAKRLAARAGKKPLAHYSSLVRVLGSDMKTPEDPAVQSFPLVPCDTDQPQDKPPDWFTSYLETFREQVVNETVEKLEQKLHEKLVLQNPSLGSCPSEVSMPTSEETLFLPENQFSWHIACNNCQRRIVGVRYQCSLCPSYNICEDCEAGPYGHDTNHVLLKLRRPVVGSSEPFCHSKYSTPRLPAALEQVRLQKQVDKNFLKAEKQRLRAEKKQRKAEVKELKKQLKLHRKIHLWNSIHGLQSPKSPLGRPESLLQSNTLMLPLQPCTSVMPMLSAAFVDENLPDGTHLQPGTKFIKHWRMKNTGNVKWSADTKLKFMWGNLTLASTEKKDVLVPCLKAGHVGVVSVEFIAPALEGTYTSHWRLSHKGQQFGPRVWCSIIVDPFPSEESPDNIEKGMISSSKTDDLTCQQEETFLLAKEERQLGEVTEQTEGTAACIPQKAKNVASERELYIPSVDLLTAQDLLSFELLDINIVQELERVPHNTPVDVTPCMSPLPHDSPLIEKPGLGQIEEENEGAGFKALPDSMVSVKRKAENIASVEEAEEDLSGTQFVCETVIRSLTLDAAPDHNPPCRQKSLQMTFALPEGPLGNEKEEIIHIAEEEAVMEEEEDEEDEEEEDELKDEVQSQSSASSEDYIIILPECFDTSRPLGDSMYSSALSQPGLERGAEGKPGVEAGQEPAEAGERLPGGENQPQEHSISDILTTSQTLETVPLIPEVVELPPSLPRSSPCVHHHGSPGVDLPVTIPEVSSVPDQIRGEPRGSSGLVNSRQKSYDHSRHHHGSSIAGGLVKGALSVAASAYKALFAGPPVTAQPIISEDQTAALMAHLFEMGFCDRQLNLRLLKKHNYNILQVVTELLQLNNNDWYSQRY
UniProt Q14061: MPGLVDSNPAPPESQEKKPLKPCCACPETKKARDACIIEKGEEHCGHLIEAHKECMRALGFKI
UniProt Q13464: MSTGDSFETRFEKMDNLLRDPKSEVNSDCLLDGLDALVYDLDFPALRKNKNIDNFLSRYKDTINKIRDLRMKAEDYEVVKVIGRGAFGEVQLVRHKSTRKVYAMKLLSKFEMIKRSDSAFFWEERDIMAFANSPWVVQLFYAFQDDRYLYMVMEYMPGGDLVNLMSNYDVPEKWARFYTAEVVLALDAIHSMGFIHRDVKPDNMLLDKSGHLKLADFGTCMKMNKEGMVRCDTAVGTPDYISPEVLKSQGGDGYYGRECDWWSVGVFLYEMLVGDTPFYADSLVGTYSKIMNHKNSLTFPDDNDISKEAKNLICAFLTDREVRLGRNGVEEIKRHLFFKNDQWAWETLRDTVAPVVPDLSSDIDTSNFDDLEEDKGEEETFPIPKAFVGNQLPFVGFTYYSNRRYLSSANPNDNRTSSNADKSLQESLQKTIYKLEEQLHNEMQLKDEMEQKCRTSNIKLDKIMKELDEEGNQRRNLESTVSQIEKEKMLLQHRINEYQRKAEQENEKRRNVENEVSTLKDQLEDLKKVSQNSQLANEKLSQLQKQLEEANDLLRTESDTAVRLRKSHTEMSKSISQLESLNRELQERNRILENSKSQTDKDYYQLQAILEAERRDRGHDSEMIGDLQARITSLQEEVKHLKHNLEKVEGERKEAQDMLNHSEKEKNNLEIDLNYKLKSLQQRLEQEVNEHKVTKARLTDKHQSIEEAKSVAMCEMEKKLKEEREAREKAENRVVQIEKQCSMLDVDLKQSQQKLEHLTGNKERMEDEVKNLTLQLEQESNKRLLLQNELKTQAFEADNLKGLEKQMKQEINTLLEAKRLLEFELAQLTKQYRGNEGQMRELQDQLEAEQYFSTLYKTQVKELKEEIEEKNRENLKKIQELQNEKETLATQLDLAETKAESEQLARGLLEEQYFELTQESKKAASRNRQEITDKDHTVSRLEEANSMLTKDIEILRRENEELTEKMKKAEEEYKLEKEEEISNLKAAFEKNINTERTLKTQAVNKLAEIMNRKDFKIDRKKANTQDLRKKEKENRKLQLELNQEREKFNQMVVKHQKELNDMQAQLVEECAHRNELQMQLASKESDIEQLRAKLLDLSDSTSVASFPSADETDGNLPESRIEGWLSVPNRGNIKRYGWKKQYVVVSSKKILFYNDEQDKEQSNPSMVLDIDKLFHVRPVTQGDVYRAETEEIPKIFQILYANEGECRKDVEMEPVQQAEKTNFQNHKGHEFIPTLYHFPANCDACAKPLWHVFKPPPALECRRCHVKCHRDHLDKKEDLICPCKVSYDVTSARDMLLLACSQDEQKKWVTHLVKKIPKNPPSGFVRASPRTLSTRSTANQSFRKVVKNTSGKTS
UniProt Q14692: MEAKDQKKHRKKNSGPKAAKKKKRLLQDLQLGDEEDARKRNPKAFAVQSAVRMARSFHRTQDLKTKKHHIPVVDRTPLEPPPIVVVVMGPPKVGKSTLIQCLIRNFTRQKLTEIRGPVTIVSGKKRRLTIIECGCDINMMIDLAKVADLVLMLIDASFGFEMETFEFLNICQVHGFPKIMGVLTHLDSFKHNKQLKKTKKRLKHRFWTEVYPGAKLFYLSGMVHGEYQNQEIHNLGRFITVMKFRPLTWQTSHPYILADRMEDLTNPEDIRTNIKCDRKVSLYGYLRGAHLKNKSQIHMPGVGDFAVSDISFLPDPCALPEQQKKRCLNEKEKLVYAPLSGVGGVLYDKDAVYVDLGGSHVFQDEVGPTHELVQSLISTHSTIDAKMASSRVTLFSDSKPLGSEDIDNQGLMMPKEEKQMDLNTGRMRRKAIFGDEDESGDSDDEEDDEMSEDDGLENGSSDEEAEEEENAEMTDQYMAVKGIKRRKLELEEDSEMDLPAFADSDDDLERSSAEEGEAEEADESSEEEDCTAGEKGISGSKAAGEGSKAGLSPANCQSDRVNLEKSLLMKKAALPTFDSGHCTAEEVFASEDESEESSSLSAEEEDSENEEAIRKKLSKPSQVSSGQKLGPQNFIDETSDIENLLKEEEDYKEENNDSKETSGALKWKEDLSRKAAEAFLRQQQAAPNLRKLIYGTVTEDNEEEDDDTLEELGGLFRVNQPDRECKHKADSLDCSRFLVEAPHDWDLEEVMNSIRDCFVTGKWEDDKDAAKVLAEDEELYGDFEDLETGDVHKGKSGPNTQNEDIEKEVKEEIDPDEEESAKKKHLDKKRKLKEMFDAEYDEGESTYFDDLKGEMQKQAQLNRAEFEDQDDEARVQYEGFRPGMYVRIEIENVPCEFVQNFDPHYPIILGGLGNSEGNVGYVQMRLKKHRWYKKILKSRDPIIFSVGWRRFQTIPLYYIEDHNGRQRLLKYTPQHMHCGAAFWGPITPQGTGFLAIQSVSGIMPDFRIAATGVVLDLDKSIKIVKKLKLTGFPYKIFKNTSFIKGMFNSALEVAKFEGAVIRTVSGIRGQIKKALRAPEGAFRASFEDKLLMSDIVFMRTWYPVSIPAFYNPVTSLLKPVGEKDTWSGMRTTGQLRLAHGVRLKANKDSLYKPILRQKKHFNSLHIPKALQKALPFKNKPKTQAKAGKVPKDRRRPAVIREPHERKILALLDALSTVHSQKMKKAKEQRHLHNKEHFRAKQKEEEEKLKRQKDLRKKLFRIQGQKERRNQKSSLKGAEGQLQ
UniProt Q13546: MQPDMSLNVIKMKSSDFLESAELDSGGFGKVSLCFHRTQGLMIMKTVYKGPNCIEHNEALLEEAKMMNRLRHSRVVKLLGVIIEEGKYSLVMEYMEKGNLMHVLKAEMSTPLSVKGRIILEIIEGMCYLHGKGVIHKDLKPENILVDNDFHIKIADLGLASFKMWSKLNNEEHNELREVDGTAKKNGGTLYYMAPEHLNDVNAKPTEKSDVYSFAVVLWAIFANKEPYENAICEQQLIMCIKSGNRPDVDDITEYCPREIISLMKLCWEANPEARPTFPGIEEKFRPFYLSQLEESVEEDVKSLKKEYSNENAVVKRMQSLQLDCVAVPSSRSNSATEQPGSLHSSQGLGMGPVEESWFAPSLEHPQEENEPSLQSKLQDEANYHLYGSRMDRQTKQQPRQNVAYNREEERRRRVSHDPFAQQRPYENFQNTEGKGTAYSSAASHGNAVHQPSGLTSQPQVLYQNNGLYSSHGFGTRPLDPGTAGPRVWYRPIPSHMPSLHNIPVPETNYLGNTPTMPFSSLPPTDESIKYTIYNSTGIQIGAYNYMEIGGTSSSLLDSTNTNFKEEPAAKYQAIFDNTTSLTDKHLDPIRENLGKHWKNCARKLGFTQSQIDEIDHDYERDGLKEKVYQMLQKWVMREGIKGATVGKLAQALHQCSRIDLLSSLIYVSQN
UniProt Q14565: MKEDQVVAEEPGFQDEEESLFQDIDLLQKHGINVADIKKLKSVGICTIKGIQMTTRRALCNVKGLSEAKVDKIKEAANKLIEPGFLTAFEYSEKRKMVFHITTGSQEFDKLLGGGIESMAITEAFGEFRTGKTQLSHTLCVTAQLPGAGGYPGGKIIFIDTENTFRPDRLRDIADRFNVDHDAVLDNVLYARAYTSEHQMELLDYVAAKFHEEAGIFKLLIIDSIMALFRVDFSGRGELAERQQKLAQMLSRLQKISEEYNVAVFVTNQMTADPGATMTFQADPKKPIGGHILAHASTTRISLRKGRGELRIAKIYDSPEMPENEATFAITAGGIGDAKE
UniProt Q13371: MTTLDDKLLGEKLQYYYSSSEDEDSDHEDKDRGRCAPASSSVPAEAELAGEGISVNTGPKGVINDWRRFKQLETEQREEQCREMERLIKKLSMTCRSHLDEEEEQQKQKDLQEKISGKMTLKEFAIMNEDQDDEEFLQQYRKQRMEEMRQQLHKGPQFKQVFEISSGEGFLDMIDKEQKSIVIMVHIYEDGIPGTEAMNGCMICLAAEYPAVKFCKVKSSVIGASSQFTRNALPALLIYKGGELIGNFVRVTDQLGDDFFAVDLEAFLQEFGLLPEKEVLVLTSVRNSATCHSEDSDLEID
UniProt Q13561, whole entry: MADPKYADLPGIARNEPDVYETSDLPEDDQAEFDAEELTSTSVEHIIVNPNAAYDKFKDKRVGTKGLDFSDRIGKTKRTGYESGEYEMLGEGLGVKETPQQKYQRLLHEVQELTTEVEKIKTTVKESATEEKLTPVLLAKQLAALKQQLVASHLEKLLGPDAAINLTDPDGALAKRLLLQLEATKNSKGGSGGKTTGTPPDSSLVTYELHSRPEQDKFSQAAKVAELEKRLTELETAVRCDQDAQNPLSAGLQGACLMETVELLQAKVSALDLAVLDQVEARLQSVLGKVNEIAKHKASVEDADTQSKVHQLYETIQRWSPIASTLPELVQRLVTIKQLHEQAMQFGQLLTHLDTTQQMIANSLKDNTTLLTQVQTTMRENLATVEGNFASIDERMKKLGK
UniProt Q15004: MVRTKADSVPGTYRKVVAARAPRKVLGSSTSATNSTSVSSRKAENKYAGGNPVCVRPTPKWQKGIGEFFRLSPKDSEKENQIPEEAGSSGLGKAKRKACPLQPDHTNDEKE
UniProt Q14498: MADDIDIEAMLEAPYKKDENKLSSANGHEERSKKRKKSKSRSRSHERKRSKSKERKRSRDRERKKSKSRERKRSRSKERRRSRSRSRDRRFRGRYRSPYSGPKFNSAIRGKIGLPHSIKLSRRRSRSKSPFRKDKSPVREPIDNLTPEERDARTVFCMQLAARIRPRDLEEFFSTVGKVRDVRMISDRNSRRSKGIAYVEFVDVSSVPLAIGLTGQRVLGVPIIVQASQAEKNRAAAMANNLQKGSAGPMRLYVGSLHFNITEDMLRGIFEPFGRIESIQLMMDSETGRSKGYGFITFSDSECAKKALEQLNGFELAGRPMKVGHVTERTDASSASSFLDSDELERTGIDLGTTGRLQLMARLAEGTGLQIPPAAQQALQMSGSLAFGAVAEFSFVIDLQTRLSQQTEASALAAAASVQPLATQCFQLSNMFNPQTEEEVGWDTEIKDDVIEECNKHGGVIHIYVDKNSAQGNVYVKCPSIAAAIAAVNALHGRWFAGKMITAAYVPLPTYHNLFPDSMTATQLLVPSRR

These targets were tested with Cc1nc(Nc2ncc(C(=O)Nc3c(C)cccc3Cl)s2)cc(N2CCN(CCO)CC2)n1 [dasatinib] (assay: log2 fold change of tryptic peptide abundance, ligand vs vehicle (limited proteolysis) (log2 ratio); higher = more trypsin-susceptible (destabilized)). Conditions: ligand concentration: 5 uM; sample: K562 cleared lysate.

| Target | log2 fold change |
| --- | --- |
| COG2 (peptide sequence: VQLEELR, peptide start residue: 40) (UniProt Q14746) | 0.204 |
| DYRK1A (peptide sequence: HQQGQGDDSSHKK, peptide start residue: 119) (UniProt Q13627) | 0.658 |
| BOP1 (peptide sequence: KLMPNCK, peptide start residue: 615) (UniProt Q14137) | 0.504 |
| ZNF460 (peptide sequence: SNFVLHNK, peptide start residue: 293) (UniProt Q14592) | 0.237 |
| FAT1 (peptide sequence: PLEEKPSQPYSAR, peptide start residue: 4347) (UniProt Q14517) | -0.0383 |
| UniProt Q13885 (peptide sequence: INVYYNEAAGNKYVPR, peptide start residue: 47) | -0.0359 |
| GANAB (peptide sequence: KLVAIVDPHIK, peptide start residue: 462) (UniProt Q14697) | 0.454 |
| TRIP12 (peptide sequence: SPTTTQSPK, peptide start residue: 1030) (UniProt Q14669) | 0.378 |
| NBR1 (peptide sequence: EQVVNETVEKLEQK, peptide start residue: 163) (UniProt Q14596) | -0.159 |
| UniProt Q13247 (peptide sequence: QAGEVTYADAHKER, peptide start residue: 132) | -0.122 |
| ARHGAP19 (peptide sequence: HEKPEIFTELVVSNITR, peptide start residue: 51) (UniProt Q14CB8) | -0.591 |
| FASTKD3 (peptide sequence: NEESQMFYR, peptide start residue: 96) (UniProt Q14CZ7) | 0.11 |
| UniProt Q14324 (peptide sequence: KPDSVSVETGK, peptide start residue: 57) | 0.768 |
| COX17 (peptide sequence: KPLKPCCACPETK, peptide start residue: 18) (UniProt Q14061) | -0.284 |
| FHL2 (peptide sequence: QWHNDCFNCKKCSLSLVGR, peptide start residue: 243) (UniProt Q14192) | -0.549 |
| MCM6 (peptide sequence: ELRDEEQTAESIK, peptide start residue: 314) (UniProt Q14566) | 0.213 |
| ROCK1 (peptide sequence: TSNIKLDK, peptide start residue: 455) (UniProt Q13464) | 0.211 |
| CUL4A (peptide sequence: DMELSKDIMVHFK, peptide start residue: 497) (UniProt Q13619) | -0.424 |
| MBTPS1 (peptide sequence: HLGDRLEK, peptide start residue: 20) (UniProt Q14703) | -0.144 |

For reference, part of the list above:

| Target | log2 fold change |
| --- | --- |
| FAT1 (peptide sequence: PLEEKPSQPYSAR, peptide start residue: 4347) (UniProt Q14517) | -0.0383 |
| UniProt Q13885 (peptide sequence: INVYYNEAAGNKYVPR, peptide start residue: 47) | -0.0359 |
| GANAB (peptide sequence: KLVAIVDPHIK, peptide start residue: 462) (UniProt Q14697) | 0.454 |
| TRIP12 (peptide sequence: SPTTTQSPK, peptide start residue: 1030) (UniProt Q14669) | 0.378 |
| NBR1 (peptide sequence: EQVVNETVEKLEQK, peptide start residue: 163) (UniProt Q14596) | -0.159 |
| UniProt Q13247 (peptide sequence: QAGEVTYADAHKER, peptide start residue: 132) | -0.122 |
| ARHGAP19 (peptide sequence: HEKPEIFTELVVSNITR, peptide start residue: 51) (UniProt Q14CB8) | -0.591 |
| FASTKD3 (peptide sequence: NEESQMFYR, peptide start residue: 96) (UniProt Q14CZ7) | 0.11 |
| UniProt Q14324 (peptide sequence: KPDSVSVETGK, peptide start residue: 57) | 0.768 |

(cont.)

| Target | log2 fold change |
| --- | --- |
| UniProt Q14209 (peptide sequence: YDTSLGLLTK, peptide start residue: 179) | 0.362 |
| SMAD4 (peptide sequence: QGGESETFAKR, peptide start residue: 28) (UniProt Q13485) | 0.798 |
| BMS1 (peptide sequence: QQQAAPNLR, peptide start residue: 682) (UniProt Q14692) | 0.157 |
| ATM (peptide sequence: IAKPNVSASTQASR, peptide start residue: 77) (UniProt Q13315) | -0.296 |
| UniProt Q14159 (peptide sequence: HQCISYQK, peptide start residue: 282) | 0.592 |
| RIPK1 (peptide sequence: RVSHDPFAQQRPYENFQNTEGK, peptide start residue: 414) (UniProt Q13546) | -0.132 |
| PICALM (peptide sequence: SLITTHHLMVYGNER, peptide start residue: 78) (UniProt Q13492) | -0.191 |
| UniProt Q14565 (peptide sequence: FHEEAGIFK, peptide start residue: 210) | 0.287 |
| TUBB3 (peptide sequence: MSMKEVDEQMLAIQSK, peptide start residue: 321) (UniProt Q13509) | 0.538 |
| PDCL (peptide sequence: QRMEEMR, peptide start residue: 143) (UniProt Q13371) | -0.757 |
| DCTN2 (peptide sequence: TTGTPPDSSLVTYELHSRPEQDK, peptide start residue: 195) (UniProt Q13561) | 0.226 |
| TFDP2 (peptide sequence: KFIDSDFSESKR, peptide start residue: 110) (UniProt Q14188) | 0.167 |
| PSMD2 (peptide sequence: SETELKDTYAR, peptide start residue: 546) (UniProt Q13200) | -1.21 |
| MVP (peptide sequence: DLAVAGPEMQVK, peptide start residue: 809) (UniProt Q14764) | 0.246 |
| STIM1 (peptide sequence: AEQSLHDLQER, peptide start residue: 254) (UniProt Q13586) | -0.441 |
| UniProt Q15004 (peptide sequence: ADSVPGTYR, peptide start residue: 6) | 0.0904 |
| RBM39 (peptide sequence: CPSIAAAIAAVNALHGR, peptide start residue: 478) (UniProt Q14498) | -0.481 |
| DYNC1H1 (peptide sequence: TFDHYCEYR, peptide start residue: 2634) (UniProt Q14204) | -0.27 |
